At least one result comes from cells or an extract, where the contact may be indirect. For some of these results: The comparison behind a weaker result is the experiment's own reference, which may not be listed here. Protein sequences can lack the tags named with them. For some of these results: For at least one entry, the source does not settle the construct or the ends of the probe. For some of these results: A negative result means that nothing was seen under these conditions.
Tests used:
[1] = target: T1, Twist (Drosophila melanogaster) (UniProt P10627); assay: footprint; conditions: in vivo ChIP-nexus, protein in cells, protein details: endogenous, 2-4 h embryos
T1 sequence (looked up, limits assumed): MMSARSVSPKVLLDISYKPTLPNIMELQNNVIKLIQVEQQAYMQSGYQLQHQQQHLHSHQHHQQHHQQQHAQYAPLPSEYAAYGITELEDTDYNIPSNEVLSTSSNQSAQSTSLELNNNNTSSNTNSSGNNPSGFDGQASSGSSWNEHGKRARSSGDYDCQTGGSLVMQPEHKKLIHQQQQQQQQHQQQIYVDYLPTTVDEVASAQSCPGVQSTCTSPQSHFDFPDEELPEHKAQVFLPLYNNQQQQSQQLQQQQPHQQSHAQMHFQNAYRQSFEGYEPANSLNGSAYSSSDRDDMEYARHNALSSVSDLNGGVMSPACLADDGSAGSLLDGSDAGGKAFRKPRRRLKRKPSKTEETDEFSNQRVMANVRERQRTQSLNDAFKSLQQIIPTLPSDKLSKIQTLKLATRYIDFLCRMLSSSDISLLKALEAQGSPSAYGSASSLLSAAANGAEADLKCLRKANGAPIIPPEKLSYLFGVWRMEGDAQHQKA

[2] = target: T2, Max (Drosophila melanogaster) (UniProt P91664); assay: footprint; conditions: in vivo ChIP-nexus, protein in cells, protein details: endogenous, S2 cells
T2 sequence (looked up, limits assumed): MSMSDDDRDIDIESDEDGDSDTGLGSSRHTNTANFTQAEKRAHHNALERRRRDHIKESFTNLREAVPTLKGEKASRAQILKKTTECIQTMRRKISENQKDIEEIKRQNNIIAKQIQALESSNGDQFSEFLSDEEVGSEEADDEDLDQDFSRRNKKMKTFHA

[3] = E-box variants other than CACGTG and CACATG not significantly bound

CATATG (double strand) [E-box CATATG]
binding result ([1]; outer boundary at 11 bp dominant): binds
binding result [2, 3]: no binding

CAGATG (double strand) [E-box CAGATG]
binding result ([1]; inner boundary at 2 bp more prominent): binds
binding result [2, 3]: no binding

CACGTG (double strand) [E-box CACGTG]
binding result ([2]; strongest E-box, boundaries 8 bp outside motif): binds

CACATG (double strand) [E-box CACATG]
binding result ([1]; outer boundary at 11 bp dominant to lesser extent): binds
binding result ([2]; smaller but otherwise identical footprint): binds more weakly

From patent US20170362650
